Results are given in words; binding and its absence hold for the method and conditions named. Binding seen in cells or lysates may run through a third protein. For some assays here: Binding calls can cover weak binding; strength is not graded here.
Columns and labels:
[1] = target: His-tagged FYVE domain of RUFY3; test: pull-down; in vitro pull-down of HPIP with His-tagged wt RUFY3 and RUFY3 domains (CC, RUN, FYVE); conditions not given
[2] = target: His-tagged CC domain of RUFY3; test: as above

B1: HPIP used in the in vitro pull-down with RUFY3 domains (protein, UniProt Q96AQ6 1-731)
chain: MASCPDSDNSWVLAGSESLPVETLGPASRMDPESERALQAPHSPSKTDGKELAGTMDGEGTLFQTESPQSGSILTEETEVKGTLEGDVCGVEPPGPGDTVVQGDLQETTVVTGLGPDTQDLEGQSPPQSLPSTPKAAWIREEGRCSSSDDDTDVDMEGLRRRRGREAGPPQPMVPLAVENQAGGEGAGGELGISLNMCLLGALVLLGLGVLLFSGGLSESETGPMEEVERQVLPDPEVLEAVGDRQDGLREQLQAPVPPDSVPSLQNMGLLLDKLAKENQDIRLLQAQLQAQKEELQSLMHQPKGLEEENAQLRGALQQGEAFQRALESELQQLRARLQGLEADCVRGPDGVCLSGGRGPQGDKAIREQGPREQEPELSFLKQKEQLEAEAQALRQELERQRRLLGSVQQDLERSLQDASRGDPAHAGLAELGHRLAQKLQGLENWGQDPGVSANASKAWHQKSHFQNSREWSGKEKWWDGQRDRKAEHWKHKKEESGRERKKNWGGQEDREPAGRWKEGRPRVEESGSKKEGKRQGPKEPPRKSGSFHSSGEKQKQPRWREGTKDSHDPLPSWAELLRPKYRAPQGCSGVDECARQEGLTFFGTELAPVRQQELASLLRTYLARLPWAGQLTKELPLSPAFFGEDGIFRHDRLRFRDFVDALEDSLEEVAVQQTGDDDEVDDFEDFIFSHFFGDKALKKRSGKKDKHSQSPRAAGPREGHSHSHHHHHRG
binding [1]: no binding | binding [2]: binds

From publication PMC10641178
